The values that follow come from US20070117864A1, “Composition for preventing and treating hepatoma” (Tokyo University of Agr. & Tech. TLO Co., Ltd., priority 2003, published 2007).

Each structure is given as a SMILES string.

Series [1] can be described thus: fecal steroid excretion in hepatoma-bearing rats. Format: in vivo, rat. Conditions: final two days, mean ± SEM of 11 rats. The protocol: Male Donryu rats of four weeks old were purchased from NRC Haruna, Gumma, Japan, and were preliminarily fed for 6 days in quintuple cages in a room with a controlled environment with light period of 8:00 to 20:00, room temperature of 22±1° C., and relative humidity of 60±5%. For the first 3 days, the animals were fed ad libitum with a stock pellet diet (CE-2; CLEA Japan, Tokyo), and for the next 3 days, they were fed a basal diet containing 20% milk casein (20C) (Table 1) ad libitum together with tap water in a glass container. Following the completion of this preparatory raising, the rats were divided into three groups (11 animals per group) with equal average body weights of the respective groups were equal, and 1.0×10^7 of AH109A cells suspended in PBS (−) were transplanted in the back of all the rats. From the time immediately after transplantation, in the respective experimental groups, the animals were fed the experimental diets shown in Table 2.
During the experimental period, the body weight, food intake and solid tumor size (sum of length, width and height) were measured everyday. […]
The amounts of fecal steroids, neutral sterol (NS) and bile acid (BA), excreted into feces were measured. The feces were dried at 60° C., and the dry weight was measured; then, the feces were pulverized using a mixer and a mortar and pestle. […]

Series [2] is described as follows: food intake, body weight gain and liver weight in hepatoma-bearing rats. Format: in vivo, rat. As to conditions: for Food intake / Liver weight: mean ± SEM of 11 rats. The protocol:
Male Donryu rats of four weeks old were purchased from NRC Haruna, Gumma, Japan, and were preliminarily fed for 6 days in quintuple cages in a room with a controlled environment with light period of 8:00 to 20:00, room temperature of 22±1° C., and relative humidity of 60±5%. For the first 3 days, the animals were fed ad libitum with a stock pellet diet (CE-2; CLEA Japan, Tokyo), and for the next 3 days, they were fed a basal diet containing 20% milk casein (20C) (Table 1) ad libitum together with tap water in a glass container. Following the completion of this preparatory raising, the rats were divided into three groups (11 animals per group) with equal average body weights of the respective groups were equal, and 1.0×10^7 of AH109A cells suspended in PBS (−) were transplanted in the back of all the rats. From the time immediately after transplantation, in the respective experimental groups, the animals were fed the experimental diets shown in Table 2. During the experimental period, the body weight, food intake and solid tumor size (sum of length, width and height) were measured everyday. On the day that the animals were killed, animals were deprived of experimental diets at 9:00, but freely given water until they were killed 4 hours later. Blood was collected from carotid, and the liver and solid tumors were excised. The collected blood was allowed to stand for approximately 2 hours at room temperature, and then centrifuged for 10 minutes at 3000 rpm (1750×g), 4° C., to obtain serum. This blood serum was frozen and stored at −20° C. The livers and solid tumors were washed with physiological saline, blotted on filter paper, and weighed. Furthermore, feces from the 19th to 21st days after transplantation were collected, and these feces were frozen and stored at −20° C. for the measurement of the amounts of steroids excreted from the body.

On to `O=C1OCC(Cc2cccc(O)c2)C1Cc1cccc(O)c1` (stereo not shown) [Enterolactone, enterolactone], for which the “Steroid excretion Fecal dry weight” value in series [1] (diet 10 ppm) was 2.87 ± 0.18 g/2 days; in series [1] (diet 100 ppm) it was 2.99 ± 0.14 g/2 days. Moreover, the Food intake in series [2] (diet 10 ppm) is 433 ± 14 g/21 days; in series [2] (diet 100 ppm) it was 472 ± 9 g/21 days. For the same compound, the results for the Liver weight in series [2] (diet 10 ppm) and in series [2] (diet 100 ppm) were 10.1 ± 0.5 g/rat and 11.3 ± 4.0 g/rat, respectively. Moreover, in series [2] (respective diet groups compared), the “amount of food ingested, liver weight, lipid peroxides, liver lipid levels” value was “no significant differences”.
